Measured values: patent publication US20060204957A1, “Mta1s, a steriod hormone receptor corepressor” (priority 2002, published 2006)
These are yes or no findings as the source states them, for the method shown. For some of these results: Binding seen in cells or lysates may run through a third protein. Some entries that bind do so weakly or less than the wild type.

By UniProt entry, the sequences of proteins in these tests, tags left out. Where a name states a change or a piece, a line headed by the entry shows the natural chain unless it says otherwise. Residues count along the entry.
UniProt P03372: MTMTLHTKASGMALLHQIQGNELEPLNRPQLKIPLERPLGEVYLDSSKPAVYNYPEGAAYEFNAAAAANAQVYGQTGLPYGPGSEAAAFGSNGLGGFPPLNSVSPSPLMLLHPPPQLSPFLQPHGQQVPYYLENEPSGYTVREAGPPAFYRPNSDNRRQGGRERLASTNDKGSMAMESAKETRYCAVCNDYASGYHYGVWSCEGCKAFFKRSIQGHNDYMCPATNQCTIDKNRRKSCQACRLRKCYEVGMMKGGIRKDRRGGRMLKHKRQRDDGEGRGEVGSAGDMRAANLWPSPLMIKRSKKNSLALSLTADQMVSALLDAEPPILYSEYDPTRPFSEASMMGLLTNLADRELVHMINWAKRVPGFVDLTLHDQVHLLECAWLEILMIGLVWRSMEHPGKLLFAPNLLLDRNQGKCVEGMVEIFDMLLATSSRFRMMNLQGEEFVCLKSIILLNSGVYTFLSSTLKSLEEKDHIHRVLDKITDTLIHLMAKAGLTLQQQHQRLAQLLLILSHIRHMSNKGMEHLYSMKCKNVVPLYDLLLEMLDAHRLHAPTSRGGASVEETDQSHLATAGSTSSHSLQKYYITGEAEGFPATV
GST-AF2 domain of the ER: residues 282-595 of P03372
UniProt P01106, residues 16-454: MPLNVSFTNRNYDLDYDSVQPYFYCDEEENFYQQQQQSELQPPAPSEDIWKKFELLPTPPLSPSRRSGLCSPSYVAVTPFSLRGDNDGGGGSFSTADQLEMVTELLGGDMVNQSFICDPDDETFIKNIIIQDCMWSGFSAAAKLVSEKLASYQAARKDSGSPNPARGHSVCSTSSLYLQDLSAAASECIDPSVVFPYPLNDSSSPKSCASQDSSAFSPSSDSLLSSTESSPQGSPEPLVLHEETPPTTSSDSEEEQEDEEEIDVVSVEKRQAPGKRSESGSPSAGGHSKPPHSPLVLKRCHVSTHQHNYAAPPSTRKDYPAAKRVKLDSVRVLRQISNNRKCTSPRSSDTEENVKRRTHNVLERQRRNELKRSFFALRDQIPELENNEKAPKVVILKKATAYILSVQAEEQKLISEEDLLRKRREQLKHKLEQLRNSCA
UniProt Q13330: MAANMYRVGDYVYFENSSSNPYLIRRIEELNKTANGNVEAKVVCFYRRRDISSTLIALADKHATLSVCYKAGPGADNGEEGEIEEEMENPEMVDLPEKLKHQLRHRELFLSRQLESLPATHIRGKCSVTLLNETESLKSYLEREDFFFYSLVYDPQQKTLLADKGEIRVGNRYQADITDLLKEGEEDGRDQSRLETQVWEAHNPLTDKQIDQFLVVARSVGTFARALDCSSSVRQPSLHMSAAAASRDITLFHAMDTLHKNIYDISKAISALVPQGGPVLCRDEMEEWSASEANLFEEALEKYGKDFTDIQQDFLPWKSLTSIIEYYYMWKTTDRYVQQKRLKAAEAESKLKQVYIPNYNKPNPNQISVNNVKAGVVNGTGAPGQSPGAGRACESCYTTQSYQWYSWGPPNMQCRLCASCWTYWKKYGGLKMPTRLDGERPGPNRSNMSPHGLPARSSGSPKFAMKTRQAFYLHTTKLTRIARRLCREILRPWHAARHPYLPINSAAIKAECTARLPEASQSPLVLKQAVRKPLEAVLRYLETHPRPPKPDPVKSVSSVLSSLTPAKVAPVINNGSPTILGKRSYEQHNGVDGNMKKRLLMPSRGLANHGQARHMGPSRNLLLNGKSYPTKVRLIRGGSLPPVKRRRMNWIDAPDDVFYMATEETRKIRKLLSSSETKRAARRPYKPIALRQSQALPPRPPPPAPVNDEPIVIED

Legend:
GST-AF2 domain of the ER = GST-AF2 domain of the ER (UniProt P03372); test: GST pull-down with the GST-AF2 domain of the ER (FIG. 3G)
c-Myc Oncogene = c-Myc Oncogene (UniProt P01106); test: FIG. 14 legend
GST-ER = GST-ER (UniProt P03372); test: GST pull-down (FIG. 3F)
Estrogen Receptor α (ER) = Estrogen Receptor α (ER) (UniProt P03372); test: FIG. 3 legend (immunoprecipitation, GST pull-down)

binding (GST-AF2 domain of the ER): binds
binding (c-Myc Oncogene): binds
binding (GST-ER): binds
binding (Estrogen Receptor α (ER)): binds
Substance: MTA1s (from UniProt Q13330 1-397)
